This note sets out measurements from publication PMC9242963.

For some assays here: Negatives hold for the conditions tested. The exact form of at least one protein or probe is not confirmed. A weaker result is weaker than the reference pair of the same experiment. For some assays here: At least one verdict rests on a figure or table, not on a statement of the authors.

For data set [1], the target named is bovine serum albumin (BSA) (UniProt P02769). Briefly: AF4-UV (asymmetrical flow field-flow fractionation). To be noted: PBS-Mg2+ buffer (also mobile phase), 10 uL of 5 uM aptamer + 10 uL of 5, 10, 25 or 50 uM protein (1:1 to 1:10), commercial protein, single-stranded DNA.
The target in another data set is lysozyme (UniProt P00698). Described as above. The following applies: PBS-Mg2+ buffer (also mobile phase), 10 uL of 5 uM aptamer + 10 uL of 5, 10, 25 or 50 uM protein (1:1 to 1:10), commercial protein, single-stranded DNA.
Where [2] appears, read: general sentence: much lower affinity than for lysozyme, below A40.

Consider “GCAGCTAAGCAGGCGGCTCACAAAACCATTCGCATGCGGC [A40]”, for which the binding signal in data set [1] (maximum bound fraction, most interfered aptamer) amounted to 35 % bound.
Consider ATCAGGGCTAAAGAGTGCAGAGTTACTTAG [C30], for which, in data set [1] (setting [2]), the binding result is reported as “binds more weakly”.
In the case of “GGGAATGGATCCACATCTACGAATTCATCAGGGCTAAAGAGTGCAGAGTTACTTAGTTCACTGCAGACTTGACGAAGCTT [C80]”, the binding result in data set [1] (setting [2]) is “binds more weakly”.
As for “AGCAGCACAGAGGTCAGATGGCAGCTAAGCAGGCGGCTCACAAAACCATTCGCATGCGGCCCTATGCGTGCTACCGTGAA [A80]”, the binding result in data set [1] (not interacting at the concentrations explored (5 uM aptamer, up to 1:10)) is listed as “no binding”.
Regarding “AGCAGCACAGAGGTCAGATGACTATGTCGGCCGCAATGCCCAGAGGCCACATACAAGCGGCCTATGCGTGCTACCGTGAA [A80R]”, in data set [1] (setting [2]), the binding result is reported as “binds more weakly”. Moreover, the binding signal with lysozyme (5 uM aptamer, 50 uM lysozyme as stated, complex only at high molar excess) turned out to be 20 % bound.
“GGGAATGGATCCACATCTACGAATTCAAGTGGATTAACTGTGTAGACCGATAGACGTTCACTGCAGACTTGACGAAGCTT [C80R]”: the binding result in data set [1] (setting [2]) was “binds more weakly”; in the data set with lysozyme (interaction at high molar ratios, ascribed to non-specific electrostatics) it was “binds more weakly”.
